# Experiment: general procedure: Fmoc solid-phase peptide synthesis; BMEA linker resin; Rink amide MBHA resin (0.65 mmol/g); Wang resin (0.44 mmol/g); PyBOP/DIEA; DIC/HOAt for first residue on BMEA resin
# Conditions: coupling step
row,Substance,step yield
1,LKSFG-CLKFA,100%
2,LKSFF-CLKFA,98.30%
3,LKSFA-CLKFA,100%
4,LKSFV-CLKFA,≦5.00%
5,LKSFS-CLKFA,99%

# Same assay, conditions: late stage modification step
row,Substance,step yield
1,LKSFG-MPA thioester,>85%

# — US9023957 (dated 2015)
